Reference: PubChem BioAssay AID1259260 (Sanger Institute, 2017)
In all, the deposit lists 794 reagents; this is a part drawn at random. Of all reagents, 13 (1.6%) got an active call. 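Calls reflect only knock-down without drug; synergy above 0.15 was grouped apart and does not change the call.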 No viability above 1 is reported: the scale is capped. Not stated in the record: the amount of reagent, the time to read-out.

- Test: 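Kinome knock-down with three anchor drugs to find synergy partners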 (primary screen)
- System: human NCI-H716 colorectal cancer cells
- Reagents: siRNA pool against human genes
- Conditions: anchor drugs BYL719 (alpelisib) 1 µM, cetuximab 5 µg/ml or trametinib 10 nM, each at a dose chosen to harm viability only mildly; DMSO vehicle for the knock-down-alone arm
- Read-out: 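Mean viability over replicates against non-targeting siRNA, robust z-score without drug, and per-drug synergy comparing combined with single treatments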
- Reading the numbers: viability robust z-score, siRNA alone: higher = more surviving cells; below -3 called essential; viability vs control, no drug: higher = more surviving cells; synergy score with BYL719 and synergy score with cetuximab and synergy score with trametinib: higher = stronger synergy (synthetic lethality) with drug
- Call rule: 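a knock-down counts as essential if its no-drug robust z-score is lower than -3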
- Meaning of the calls: active = essential (knock-down alone lowers viability); inactive = no essential effect

| Target gene | viability robust z-score, siRNA alone | viability vs control, no drug (fraction of control) | synergy score with BYL719 | synergy score with cetuximab | synergy score with trametinib | Outcome |
| --- | --- | --- | --- | --- | --- | --- |
| STK39 (serine/threonine kinase 39) | 0.602 | 1 | -0.218 | -0.1 | 0.224 | inactive |
| MOS (MOS proto-oncogene, serine/threonine kinase) | -1.39 | 0.793 | -0.173 | 0.0247 | 0.00404 | inactive |
| PTPRU (protein tyrosine phosphatase receptor type U) | -2.43 | 0.685 | -0.189 | -0.142 | -0.0685 | inactive |
| SIK3 (SIK family kinase 3) | 0.602 | 1 | -0.0909 | 0.119 | 0.156 | inactive |
| PHKA1 (phosphorylase kinase regulatory subunit alpha 1) | 0.602 | 1 | -0.0574 | 0.00341 | -0.0297 | inactive |
| RPS6KA6 (ribosomal protein S6 kinase A6) | 0.602 | 1 | -0.283 | -0.1 | -0.141 | inactive |
| ABL1 (ABL proto-oncogene 1, non-receptor tyrosine kinase) | 0.602 | 1 | 0.0115 | -0.0146 | 0.109 | inactive |
| STK38L (serine/threonine kinase 38 like) | -1.8 | 0.751 | -0.272 | -0.0203 | -0.116 | inactive |
| LMTK2 (lemur tail kinase 2) | 0.602 | 1 | 0.0234 | -0.1 | 0.403 | inactive |
| MLKL (mixed lineage kinase domain like pseudokinase) | -2.1 | 0.72 | -0.205 | -0.0094 | -0.0557 | inactive |
| EPHB3 (EPH receptor B3) | 0.602 | 1 | -0.258 | -0.1 | -0.00566 | inactive |
| MAPKAPK3 (MAPK activated protein kinase 3) | -2.14 | 0.715 | -0.122 | -0.0394 | 0.127 | inactive |
| MAST3 (microtubule associated serine/threonine kinase 3) | 0.602 | 1 | -0.095 | -0.1 | 0.3 | inactive |
| TSSK1B (testis specific serine kinase 1B) | 0.602 | 1 | -0.186 | -0.1 | -0.0771 | inactive |
| SPEG (striated muscle enriched protein kinase) | 0.602 | 1 | -0.185 | -0.1 | 0.119 | inactive |
| STK17B (serine/threonine kinase 17b) | -0.373 | 0.899 | -0.0845 | -0.0169 | 0.233 | inactive |
| GRK1 (G protein-coupled receptor kinase 1) | 0.602 | 1 | -0.0562 | 0.0811 | 0.0335 | inactive |
| MAPKAPK5 (MAPK activated protein kinase 5) | -1.53 | 0.779 | -0.0364 | -0.023 | -0.151 | inactive |
| ELP1 (elongator acetyltransferase complex subunit 1) | 0.602 | 1 | -0.0119 | -0.0351 | 0.029 | inactive |
| LRRK1 (leucine rich repeat kinase 1) | 0.602 | 1 | -0.1 | -0.1 | 0.0435 | inactive |
| NEK4 (NIMA related kinase 4) | 0.268 | 0.965 | -0.093 | -0.0389 | -0.0175 | inactive |
| DCLK2 (doublecortin like kinase 2) | -1.57 | 0.774 | -0.202 | -0.103 | -0.0268 | inactive |
| CDK13 (cyclin dependent kinase 13) | 0.602 | 1 | -0.15 | -0.1 | -0.139 | inactive |
| DCK (deoxycytidine kinase) | 0.602 | 1 | -0.195 | -0.1 | -0.0628 | inactive |
| SMAD2 (SMAD family member 2) | 0.602 | 1 | -0.155 | -0.1 | -0.148 | inactive |
| RAF1 (Raf-1 proto-oncogene, serine/threonine kinase) | 0.602 | 1 | -0.0218 | -0.1 | 0.0485 | inactive |
| TEC (tec protein tyrosine kinase) | -3.15 | 0.61 | -0.179 | -0.158 | 0.00235 | active |
| BRD4 (bromodomain containing 4) | -0.435 | 0.892 | -0.193 | 0.0243 | 0.0391 | inactive |
| RIOK3 (RIO kinase 3) | 0.602 | 1 | -0.189 | -0.0573 | 0.184 | inactive |
| CSNK1G2 (casein kinase 1 gamma 2) | 0.602 | 1 | -0.158 | 0.0641 | -0.0929 | inactive |
| PRKACB (protein kinase cAMP-activated catalytic subunit beta) | 0.602 | 1 | -0.244 | -0.1 | -0.0586 | inactive |
| TTBK2 (tau tubulin kinase 2) | -1.75 | 0.755 | -0.181 | -0.154 | -0.0303 | inactive |
| PKN3 (protein kinase N3) | -1.05 | 0.828 | -0.0231 | 0.136 | 0.219 | inactive |
| MAGI1 | -0.423 | 0.893 | -0.0627 | 0.0469 | 0.0558 | inactive |
| FLT3 (fms related receptor tyrosine kinase 3) | -1.65 | 0.766 | -0.073 | -0.157 | -0.0668 | inactive |
| DSTYK (dual serine/threonine and tyrosine protein kinase) | 0.602 | 1 | -0.11 | -0.1 | -0.0544 | inactive |
| AXL (AXL receptor tyrosine kinase) | 0.602 | 1 | -0.116 | -0.1 | 0.0534 | inactive |
| RNASEL (ribonuclease L) | 0.602 | 1 | -0.106 | -0.1 | -0.0341 | inactive |
| CIB2 (calcium and integrin binding family member 2) | -0.193 | 0.917 | -0.292 | -0.0348 | 0.101 | inactive |
| CDK5R1 (cyclin dependent kinase 5 regulatory subunit 1) | 0.602 | 1 | 0.00952 | -0.0338 | 0.373 | inactive |
| MAP2K7 (mitogen-activated protein kinase kinase 7) | -0.00279 | 0.937 | -0.195 | -0.157 | -0.0559 | inactive |
| IKBKG | 0.602 | 1 | -0.127 | -0.1 | 0.00768 | inactive |
| EIF2AK1 (eukaryotic translation initiation factor 2 alpha kinase 1) | 0.602 | 1 | -0.283 | -0.1 | -0.149 | inactive |
| DYRK1A | 0.465 | 0.986 | -0.224 | -0.113 | 0.135 | inactive |
| ULK3 (unc-51 like kinase 3) | 0.602 | 1 | -0.179 | -0.1 | -0.0178 | inactive |
| ATR (ATR checkpoint kinase) | 0.602 | 1 | 0.0674 | -0.1 | 0.289 | inactive |
| POMK (protein O-mannose kinase) | 0.602 | 1 | -0.219 | -0.1 | 0.0921 | inactive |
| FXR1 (FMR1 autosomal homolog 1) | 0.277 | 0.966 | -0.0542 | 0.105 | -0.0318 | inactive |
| DGKG (diacylglycerol kinase gamma) | -1.14 | 0.819 | -0.213 | -0.263 | -0.0749 | inactive |
| GRK6 (G protein-coupled receptor kinase 6) | -0.432 | 0.893 | -0.194 | -0.0865 | -0.0138 | inactive |

An excerpt from the list above:
| Target gene | viability robust z-score, siRNA alone | viability vs control, no drug (fraction of control) | synergy score with BYL719 | synergy score with cetuximab | synergy score with trametinib | Outcome |
| --- | --- | --- | --- | --- | --- | --- |
| SMAD2 (SMAD family member 2) | 0.602 | 1 | -0.155 | -0.1 | -0.148 | inactive |
| RAF1 (Raf-1 proto-oncogene, serine/threonine kinase) | 0.602 | 1 | -0.0218 | -0.1 | 0.0485 | inactive |
| TEC (tec protein tyrosine kinase) | -3.15 | 0.61 | -0.179 | -0.158 | 0.00235 | active |
| BRD4 (bromodomain containing 4) | -0.435 | 0.892 | -0.193 | 0.0243 | 0.0391 | inactive |
| RIOK3 (RIO kinase 3) | 0.602 | 1 | -0.189 | -0.0573 | 0.184 | inactive |
| CSNK1G2 (casein kinase 1 gamma 2) | 0.602 | 1 | -0.158 | 0.0641 | -0.0929 | inactive |
| PRKACB (protein kinase cAMP-activated catalytic subunit beta) | 0.602 | 1 | -0.244 | -0.1 | -0.0586 | inactive |
